This note sets out measurements from the supplement of paper PMC10849652.

Chains of the proteins cited; added tags and fusions are not shown. Lines headed by an entry give the natural chain unless they say otherwise; changes in a name come on top.
UniProt Q02252: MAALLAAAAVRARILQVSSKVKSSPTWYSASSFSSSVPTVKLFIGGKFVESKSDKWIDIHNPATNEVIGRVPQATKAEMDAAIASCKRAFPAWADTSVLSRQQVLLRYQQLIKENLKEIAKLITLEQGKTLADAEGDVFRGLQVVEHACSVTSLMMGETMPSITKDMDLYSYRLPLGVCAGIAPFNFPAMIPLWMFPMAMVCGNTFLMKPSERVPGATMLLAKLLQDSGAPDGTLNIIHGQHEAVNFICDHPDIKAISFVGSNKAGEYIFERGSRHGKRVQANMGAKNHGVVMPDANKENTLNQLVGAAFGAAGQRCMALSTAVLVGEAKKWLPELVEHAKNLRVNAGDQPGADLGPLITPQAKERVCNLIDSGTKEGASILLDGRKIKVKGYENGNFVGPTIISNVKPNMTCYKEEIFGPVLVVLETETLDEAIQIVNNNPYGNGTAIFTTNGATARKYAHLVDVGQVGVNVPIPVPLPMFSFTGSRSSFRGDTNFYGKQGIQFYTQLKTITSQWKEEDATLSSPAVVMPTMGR
UniProt P00352: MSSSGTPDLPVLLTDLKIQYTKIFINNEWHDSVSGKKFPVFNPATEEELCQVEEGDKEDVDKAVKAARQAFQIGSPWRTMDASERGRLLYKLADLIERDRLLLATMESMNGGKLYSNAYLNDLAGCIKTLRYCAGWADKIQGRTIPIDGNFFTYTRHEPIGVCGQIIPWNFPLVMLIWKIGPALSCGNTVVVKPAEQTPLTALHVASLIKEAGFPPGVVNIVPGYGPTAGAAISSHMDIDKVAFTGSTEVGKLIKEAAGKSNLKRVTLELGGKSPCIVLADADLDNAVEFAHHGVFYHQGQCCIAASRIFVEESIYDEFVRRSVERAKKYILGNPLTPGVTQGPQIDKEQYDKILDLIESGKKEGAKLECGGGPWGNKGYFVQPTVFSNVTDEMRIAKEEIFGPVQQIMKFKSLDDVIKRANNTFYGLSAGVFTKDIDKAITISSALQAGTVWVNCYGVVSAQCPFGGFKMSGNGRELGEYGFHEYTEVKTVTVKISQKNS
UniProt Q96Q42: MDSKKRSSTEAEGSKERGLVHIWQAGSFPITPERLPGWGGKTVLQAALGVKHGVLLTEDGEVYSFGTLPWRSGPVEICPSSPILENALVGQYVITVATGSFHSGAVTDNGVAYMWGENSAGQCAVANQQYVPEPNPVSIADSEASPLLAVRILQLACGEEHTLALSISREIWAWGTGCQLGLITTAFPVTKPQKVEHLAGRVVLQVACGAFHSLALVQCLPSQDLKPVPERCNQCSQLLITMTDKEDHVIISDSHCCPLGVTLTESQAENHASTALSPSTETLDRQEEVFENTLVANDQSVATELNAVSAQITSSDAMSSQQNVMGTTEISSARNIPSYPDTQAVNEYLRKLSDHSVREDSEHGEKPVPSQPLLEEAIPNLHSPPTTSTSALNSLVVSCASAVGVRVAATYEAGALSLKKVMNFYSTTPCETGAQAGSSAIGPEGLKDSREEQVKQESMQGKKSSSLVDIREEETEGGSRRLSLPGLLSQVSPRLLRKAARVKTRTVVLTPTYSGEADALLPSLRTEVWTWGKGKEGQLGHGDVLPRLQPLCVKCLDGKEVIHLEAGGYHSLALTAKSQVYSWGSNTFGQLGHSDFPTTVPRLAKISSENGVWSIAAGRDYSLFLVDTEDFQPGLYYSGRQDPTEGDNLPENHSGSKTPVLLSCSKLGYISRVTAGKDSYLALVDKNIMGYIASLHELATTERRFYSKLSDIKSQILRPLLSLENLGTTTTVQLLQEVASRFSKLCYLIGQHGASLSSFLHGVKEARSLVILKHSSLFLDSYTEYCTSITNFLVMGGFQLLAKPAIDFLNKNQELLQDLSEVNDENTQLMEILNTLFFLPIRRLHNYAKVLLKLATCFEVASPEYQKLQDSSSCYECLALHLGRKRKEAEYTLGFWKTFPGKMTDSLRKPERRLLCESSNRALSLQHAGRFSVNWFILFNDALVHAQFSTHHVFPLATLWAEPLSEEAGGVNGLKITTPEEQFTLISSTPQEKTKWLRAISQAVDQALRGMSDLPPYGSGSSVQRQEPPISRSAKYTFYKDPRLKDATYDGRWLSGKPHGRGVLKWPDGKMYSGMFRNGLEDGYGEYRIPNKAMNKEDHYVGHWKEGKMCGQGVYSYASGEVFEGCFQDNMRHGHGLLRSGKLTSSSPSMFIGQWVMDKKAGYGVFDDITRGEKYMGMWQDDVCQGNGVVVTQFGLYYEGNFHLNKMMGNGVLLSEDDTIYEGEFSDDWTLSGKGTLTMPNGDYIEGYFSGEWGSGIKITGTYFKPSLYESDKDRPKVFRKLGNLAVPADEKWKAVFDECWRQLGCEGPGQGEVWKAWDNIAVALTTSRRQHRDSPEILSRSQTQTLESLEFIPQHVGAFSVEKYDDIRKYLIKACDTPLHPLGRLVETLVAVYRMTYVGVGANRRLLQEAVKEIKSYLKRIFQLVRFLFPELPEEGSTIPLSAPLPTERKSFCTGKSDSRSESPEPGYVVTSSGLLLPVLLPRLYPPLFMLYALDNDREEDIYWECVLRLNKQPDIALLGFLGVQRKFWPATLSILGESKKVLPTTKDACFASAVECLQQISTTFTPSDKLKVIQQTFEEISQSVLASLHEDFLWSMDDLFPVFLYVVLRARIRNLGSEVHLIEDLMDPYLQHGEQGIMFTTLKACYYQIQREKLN
UniProt P58335, whole entry, looked up: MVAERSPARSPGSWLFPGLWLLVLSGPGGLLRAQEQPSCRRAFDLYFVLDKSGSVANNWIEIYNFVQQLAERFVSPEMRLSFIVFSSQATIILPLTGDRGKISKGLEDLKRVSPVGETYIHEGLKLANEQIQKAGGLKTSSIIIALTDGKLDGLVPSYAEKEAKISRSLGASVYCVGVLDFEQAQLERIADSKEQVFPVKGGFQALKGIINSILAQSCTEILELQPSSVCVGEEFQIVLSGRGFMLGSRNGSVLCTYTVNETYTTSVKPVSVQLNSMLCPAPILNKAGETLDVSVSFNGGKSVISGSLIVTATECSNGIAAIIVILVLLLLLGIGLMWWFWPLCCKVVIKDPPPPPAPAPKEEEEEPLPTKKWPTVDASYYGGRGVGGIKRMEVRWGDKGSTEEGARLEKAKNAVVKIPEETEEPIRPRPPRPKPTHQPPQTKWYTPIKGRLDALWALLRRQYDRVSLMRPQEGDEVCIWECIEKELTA
UniProt P53680: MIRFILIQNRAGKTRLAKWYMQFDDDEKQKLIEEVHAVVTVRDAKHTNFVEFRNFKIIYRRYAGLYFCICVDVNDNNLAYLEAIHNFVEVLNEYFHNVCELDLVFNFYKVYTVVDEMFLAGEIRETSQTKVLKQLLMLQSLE
UniProt O14617: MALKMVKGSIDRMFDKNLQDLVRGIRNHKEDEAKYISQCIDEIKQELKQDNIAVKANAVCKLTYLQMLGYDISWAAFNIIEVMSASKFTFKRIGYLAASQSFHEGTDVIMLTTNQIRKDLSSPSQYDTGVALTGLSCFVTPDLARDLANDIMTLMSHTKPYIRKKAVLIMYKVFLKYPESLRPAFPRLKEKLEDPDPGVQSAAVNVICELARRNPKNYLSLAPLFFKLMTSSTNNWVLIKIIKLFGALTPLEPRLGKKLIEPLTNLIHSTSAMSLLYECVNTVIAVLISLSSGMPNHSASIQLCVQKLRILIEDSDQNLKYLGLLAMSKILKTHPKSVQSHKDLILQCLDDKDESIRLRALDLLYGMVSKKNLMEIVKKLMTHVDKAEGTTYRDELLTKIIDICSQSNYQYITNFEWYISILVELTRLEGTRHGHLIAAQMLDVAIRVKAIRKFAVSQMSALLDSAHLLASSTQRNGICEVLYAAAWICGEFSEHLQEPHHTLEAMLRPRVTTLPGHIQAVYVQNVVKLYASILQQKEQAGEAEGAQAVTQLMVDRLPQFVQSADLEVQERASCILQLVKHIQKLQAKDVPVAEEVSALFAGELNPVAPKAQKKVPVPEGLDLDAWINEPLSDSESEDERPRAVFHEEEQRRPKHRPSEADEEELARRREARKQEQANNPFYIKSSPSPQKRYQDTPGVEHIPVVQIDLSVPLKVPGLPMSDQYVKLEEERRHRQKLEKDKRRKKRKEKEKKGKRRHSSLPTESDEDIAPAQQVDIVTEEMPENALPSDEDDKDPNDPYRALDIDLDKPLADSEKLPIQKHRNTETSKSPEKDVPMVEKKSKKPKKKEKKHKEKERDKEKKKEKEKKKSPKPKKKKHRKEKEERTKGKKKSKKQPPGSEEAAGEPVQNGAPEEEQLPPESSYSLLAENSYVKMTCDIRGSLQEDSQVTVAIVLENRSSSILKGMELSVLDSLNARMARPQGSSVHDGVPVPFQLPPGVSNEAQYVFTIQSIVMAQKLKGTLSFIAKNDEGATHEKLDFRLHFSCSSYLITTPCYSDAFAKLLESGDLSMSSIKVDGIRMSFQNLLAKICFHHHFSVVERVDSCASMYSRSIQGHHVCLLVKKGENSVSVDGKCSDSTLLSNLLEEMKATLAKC
UniProt P05091: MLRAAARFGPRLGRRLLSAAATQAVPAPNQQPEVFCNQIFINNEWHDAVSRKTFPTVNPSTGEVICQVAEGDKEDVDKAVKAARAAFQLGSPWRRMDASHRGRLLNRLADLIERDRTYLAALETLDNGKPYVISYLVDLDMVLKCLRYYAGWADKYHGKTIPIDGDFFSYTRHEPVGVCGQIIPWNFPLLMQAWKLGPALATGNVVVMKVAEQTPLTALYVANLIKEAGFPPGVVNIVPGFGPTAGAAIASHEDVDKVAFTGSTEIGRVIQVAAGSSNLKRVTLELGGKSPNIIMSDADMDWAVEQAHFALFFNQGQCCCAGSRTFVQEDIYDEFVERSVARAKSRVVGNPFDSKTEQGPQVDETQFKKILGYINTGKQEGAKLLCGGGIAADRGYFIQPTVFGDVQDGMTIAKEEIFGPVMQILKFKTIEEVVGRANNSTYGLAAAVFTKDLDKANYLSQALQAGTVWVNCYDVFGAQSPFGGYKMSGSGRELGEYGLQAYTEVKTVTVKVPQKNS
UniProt Q92688: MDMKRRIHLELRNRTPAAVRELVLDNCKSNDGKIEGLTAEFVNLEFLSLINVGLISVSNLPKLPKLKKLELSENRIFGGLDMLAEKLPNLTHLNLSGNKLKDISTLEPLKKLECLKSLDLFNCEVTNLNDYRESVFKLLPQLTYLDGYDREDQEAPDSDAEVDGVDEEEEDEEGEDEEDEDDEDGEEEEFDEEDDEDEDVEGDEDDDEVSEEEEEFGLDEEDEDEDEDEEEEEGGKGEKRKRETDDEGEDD
UniProt Q13367: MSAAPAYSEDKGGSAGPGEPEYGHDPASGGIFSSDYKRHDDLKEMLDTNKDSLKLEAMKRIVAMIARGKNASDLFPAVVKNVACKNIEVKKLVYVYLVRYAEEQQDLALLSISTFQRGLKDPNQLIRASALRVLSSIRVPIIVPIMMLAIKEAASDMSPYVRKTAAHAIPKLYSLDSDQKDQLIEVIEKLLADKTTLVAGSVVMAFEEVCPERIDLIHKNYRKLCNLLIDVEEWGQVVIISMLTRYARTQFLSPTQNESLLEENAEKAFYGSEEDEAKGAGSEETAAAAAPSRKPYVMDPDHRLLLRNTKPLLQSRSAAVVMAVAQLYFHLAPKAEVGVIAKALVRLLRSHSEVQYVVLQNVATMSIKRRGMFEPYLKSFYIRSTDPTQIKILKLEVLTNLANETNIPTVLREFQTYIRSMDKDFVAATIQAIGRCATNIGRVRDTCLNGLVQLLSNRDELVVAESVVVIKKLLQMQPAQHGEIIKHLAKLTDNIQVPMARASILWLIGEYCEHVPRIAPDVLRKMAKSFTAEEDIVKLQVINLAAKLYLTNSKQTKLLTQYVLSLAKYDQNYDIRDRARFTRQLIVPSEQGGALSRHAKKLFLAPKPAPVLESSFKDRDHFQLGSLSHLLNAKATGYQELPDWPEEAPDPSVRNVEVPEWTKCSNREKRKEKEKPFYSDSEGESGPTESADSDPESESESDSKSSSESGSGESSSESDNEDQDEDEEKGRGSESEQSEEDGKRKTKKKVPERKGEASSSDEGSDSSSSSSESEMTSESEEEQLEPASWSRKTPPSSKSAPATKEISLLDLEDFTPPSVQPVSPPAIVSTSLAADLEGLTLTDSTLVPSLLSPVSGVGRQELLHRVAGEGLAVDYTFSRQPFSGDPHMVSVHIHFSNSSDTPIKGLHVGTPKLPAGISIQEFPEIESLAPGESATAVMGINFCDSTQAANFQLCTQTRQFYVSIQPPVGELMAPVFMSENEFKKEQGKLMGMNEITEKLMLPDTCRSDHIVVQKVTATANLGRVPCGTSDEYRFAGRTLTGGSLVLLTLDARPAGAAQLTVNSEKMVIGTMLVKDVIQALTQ

The other results are listed elsewhere or left out.

Compound in this test: CC(C)(O)CC(=O)NCCn1ccc2ncnc(Nc3ccc(Oc4cccc(C(F)(F)F)c4)c(Cl)c3)c21
As to the kind of experiment: log2 fold change, soluble protein after heating vs DMSO (PISA); higher = thermal stabilisation; K562 lysate, 10 uM; active = over 0.2 and 3.5 SD of the protein, either way, in both replicates (recomputed). An outline of the steps:
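A 30 min treatment with 10 μM compound was applied to crude K562 extract at 1 mg/mL protein in PBS pH 7.4 with 1 mM MgCl2. Heating for 3 min spanned 48°C-58°C, after which aliquots were pooled, adjusted to 0.5% NP-40 at 4°C and spun at 21,000xg for 90 min. TMTpro 16plex LC-MS/MS of the supernatant, with channel sums equalised, gave values recorded as log-two fold change in thermal stability against solvent controls, from duplicates.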
With ANKRD54 (UniProt Q6NXT1), the log2 fold change was inactive: -0.006.
Take ALDH6A1 (UniProt Q02252): the log2 fold change was inactive: -0.043.
The value for ALKBH3 (UniProt Q96Q83) was inactive: -0.031.
Regarding AMD1 (UniProt P17707), the log2 fold change is inactive: -0.013.
As for ANPEP (UniProt P15144), the log2 fold change is inactive: -0.012.
To ANXA11 (UniProt P50995) belongs inactive: 0.057; to ALDH1A1 (UniProt P00352), inactive: 0.037.
The value for ALDH1B1 (UniProt P30837) was inactive: 0.02; that for ANK1 isoform 14 (UniProt P16157) was inactive: 0.017; that for AP3S1 (UniProt Q92572) was inactive: 0.003.
The value for ANKRD28 (UniProt O15084) was inactive: -0.002.
For ALS2 (UniProt Q96Q42), the log2 fold change was inactive: -0.034.
To ANTXR2 isoform 4 (UniProt P58335) belongs inactive: -0.051.
To ANAPC4 isoform 3 (UniProt Q9UJX5) belongs inactive: -0.02.
The value for ALMS1 (UniProt Q8TCU4) was inactive: -0.021; that for AKT1S1 isoform 3 (UniProt Q96B36) was inactive: -0.037; that for ALDH18A1 (UniProt P54886) was inactive: -0.015.
Take AP2S1 (UniProt P53680): the log2 fold change is inactive: 0.087.
For AP3D1 isoform 5 (UniProt O14617), the log2 fold change was inactive: -0.012.
Turning to AP1B1 (UniProt Q10567), the log2 fold change is inactive: 0.007.
ALG2 (UniProt Q9H553): the log2 fold change was inactive: 0.037.
To ALDH2 (UniProt P05091) belongs inactive: -0.012; to ANP32B (UniProt Q92688), inactive: 0.013.
The value for AP1G2 (UniProt O75843) was inactive: 0.013; that for ANGEL2 (UniProt Q5VTE6) was inactive: 0.006; that for ANKRD13A (UniProt Q8IZ07) was inactive: -0.016.
The value for ALDH1L2 (UniProt Q3SY69) was inactive: -0.038; that for ALAD (UniProt P13716) was inactive: -0.066.
With AP3B2 isoform 4 (UniProt Q13367), the log2 fold change was inactive: 0.022.
In the case of ANAPC2 (UniProt Q9UJX6), the log2 fold change is inactive: -0.003.
The value for ALDH1A2 (UniProt O94788) was inactive: -0.037; that for ANXA3 (UniProt P12429) was inactive: 0.031; that for ANKRD27 (UniProt Q96NW4) was inactive: -0.009.
To ANAPC10 (UniProt Q9UM13) belongs inactive: 0.024.
On to ALG1 (UniProt Q9BT22), for which the log2 fold change was inactive: 0.064.
